Measurements reported in PubChem BioAssay AID1508597 (Cure First, 2020).
This is a random part of the about 2,100 reagents, under one of the conditions tested. 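Calls flag viability under 80% in either arm, not effects specific to rucaparib; the reference for percent is not stated.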 A reagent listed more than once was tested more than once; the source does not tell the runs apart. Not given: the 100% reference.

Test: 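Genes whose silencing sensitises or protects ovarian cancer cells against rucaparib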 (primary screen)
System: human ovarian carcinoma lines grown from tumours: OCI-P5x (papillary serous) and OCI-C5x (clear cell)
Knock-down reagent: siRNA pool against human genes, 1.25 pmol siRNA per well
Time to read-out: 72 h or 96 h, depending on the cell culture
Treatment: rucaparib 20 µM (about IC30) or vehicle, present until read-out
Rucaparib or vehicle: Vehicle
Cell line: OCI-P5x (serous)
Measurement: 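Luminescent ATP-based viability assay read 72 or 96 h after transfection, depending on culture, given as normalised percent viability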
Scale: viability, normalised: higher = more viable cells remaining
Rule for the call: 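Active when normalised viability falls below 80 percent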
Calls: active = viability under 80%; inactive = viability 80% or more

gene knocked down | PubChem SID | technical replicate | viability, normalised (%) | activity call
ITGB1 | SID405526910 | 1 | 60.7 | active
ITGB1 | SID405526910 | 2 | 67.5 | active
ITGB1 | SID405526910 | 3 | 67.5 | active
CDH4 | SID405526328 | 1 | 101 | inactive
CDH4 | SID405526328 | 2 | 79.7 | active
CDH4 | SID405526328 | 3 | 88.1 | inactive
CDK15 | SID405527426 | 1 | 104 | inactive
CDK15 | SID405527426 | 2 | 94.6 | inactive
CDK15 | SID405527426 | 3 | 91 | inactive
CSNK2A1 | SID405527482 | 1 | 61 | active
CSNK2A1 | SID405527482 | 1 | 107 | inactive
CSNK2A1 | SID405527482 | 2 | 73.9 | active
CSNK2A1 | SID405527482 | 2 | 119 | inactive
CSNK2A1 | SID405527482 | 3 | 110 | inactive
CSNK2A1 | SID405527482 | 3 | 83.3 | inactive
CLDN12 | SID405528126 | 1 | 54.1 | active
CLDN12 | SID405528126 | 2 | 74.5 | active
CLDN12 | SID405528126 | 3 | 54.8 | active
PRDM16 | SID405527186 | 1 | 51.6 | active
PRDM16 | SID405527186 | 2 | 62.4 | active
PRDM16 | SID405527186 | 3 | 126 | inactive
MIS18BP1 | SID405528056 | 1 | 55.9 | active
MIS18BP1 | SID405528056 | 2 | 89.5 | inactive
MIS18BP1 | SID405528056 | 3 | 138 | inactive

Taken from above:
For “activity call”, CDH4 [SID405526328], technical replicate 3 reads inactive
Result for MIS18BP1 [SID405528056], technical replicate 1 in “viability, normalised (%)”: 55.9
Result of PRDM16 [SID405527186], technical replicate 2 in “viability, normalised (%)”: 62.4
Value for PRDM16 [SID405527186], technical replicate 1 in “activity call”: active
